Source: doi:10.1101/2022.09.30.510409
Read-outs that look alike come from different tables or passages of the source. These are yes or no findings as the source states them, for the method shown. In cells and extracts the contact can be indirect. Some binding calls cover weakened binding; strength is not graded here.

The chains behind the UniProt entries cited, without tags or fusion partners. Where a name states a change or a piece, a line headed by the entry shows the natural chain unless it says otherwise. Residues count along the entry.
UniProt A0JNW5: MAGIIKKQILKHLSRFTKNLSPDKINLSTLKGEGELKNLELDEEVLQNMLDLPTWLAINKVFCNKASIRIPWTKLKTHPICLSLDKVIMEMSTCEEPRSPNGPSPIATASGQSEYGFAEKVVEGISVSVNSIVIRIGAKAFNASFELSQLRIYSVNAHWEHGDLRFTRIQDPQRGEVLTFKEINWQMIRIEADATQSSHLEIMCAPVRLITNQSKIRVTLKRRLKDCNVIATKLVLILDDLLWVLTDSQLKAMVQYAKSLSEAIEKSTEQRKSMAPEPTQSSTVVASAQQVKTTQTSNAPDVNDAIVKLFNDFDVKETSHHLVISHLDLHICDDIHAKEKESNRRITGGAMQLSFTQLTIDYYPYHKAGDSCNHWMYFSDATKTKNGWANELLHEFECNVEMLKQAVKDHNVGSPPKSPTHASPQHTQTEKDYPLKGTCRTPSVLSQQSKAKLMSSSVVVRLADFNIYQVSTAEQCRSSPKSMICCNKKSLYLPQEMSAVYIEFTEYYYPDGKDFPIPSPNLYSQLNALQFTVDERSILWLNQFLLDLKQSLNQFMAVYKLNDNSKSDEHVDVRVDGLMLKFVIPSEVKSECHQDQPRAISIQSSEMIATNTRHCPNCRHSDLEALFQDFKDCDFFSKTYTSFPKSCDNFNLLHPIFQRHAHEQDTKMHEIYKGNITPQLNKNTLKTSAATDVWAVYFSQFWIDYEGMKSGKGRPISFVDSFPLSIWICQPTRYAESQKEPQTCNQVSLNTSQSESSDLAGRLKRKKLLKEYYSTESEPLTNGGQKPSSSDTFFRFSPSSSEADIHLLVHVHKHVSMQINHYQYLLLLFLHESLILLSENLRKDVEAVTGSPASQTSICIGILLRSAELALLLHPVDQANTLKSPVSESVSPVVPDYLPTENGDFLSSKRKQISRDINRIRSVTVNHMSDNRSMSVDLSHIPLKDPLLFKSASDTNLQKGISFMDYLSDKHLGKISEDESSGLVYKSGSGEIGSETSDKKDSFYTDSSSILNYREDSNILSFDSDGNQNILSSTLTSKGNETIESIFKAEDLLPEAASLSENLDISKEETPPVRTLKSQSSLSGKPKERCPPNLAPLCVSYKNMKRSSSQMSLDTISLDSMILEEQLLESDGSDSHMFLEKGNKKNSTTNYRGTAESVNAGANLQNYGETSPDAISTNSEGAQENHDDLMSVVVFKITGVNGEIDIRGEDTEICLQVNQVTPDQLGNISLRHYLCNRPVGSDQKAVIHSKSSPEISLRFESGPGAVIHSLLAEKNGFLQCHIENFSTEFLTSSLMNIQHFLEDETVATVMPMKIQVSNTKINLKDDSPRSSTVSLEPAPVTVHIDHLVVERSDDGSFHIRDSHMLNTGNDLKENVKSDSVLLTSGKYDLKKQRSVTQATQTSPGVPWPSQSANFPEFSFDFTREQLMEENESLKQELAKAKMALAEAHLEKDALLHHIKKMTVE
GFP-SHIP164-CT: residues 890-1464 of A0JNW5
UniProt O94955: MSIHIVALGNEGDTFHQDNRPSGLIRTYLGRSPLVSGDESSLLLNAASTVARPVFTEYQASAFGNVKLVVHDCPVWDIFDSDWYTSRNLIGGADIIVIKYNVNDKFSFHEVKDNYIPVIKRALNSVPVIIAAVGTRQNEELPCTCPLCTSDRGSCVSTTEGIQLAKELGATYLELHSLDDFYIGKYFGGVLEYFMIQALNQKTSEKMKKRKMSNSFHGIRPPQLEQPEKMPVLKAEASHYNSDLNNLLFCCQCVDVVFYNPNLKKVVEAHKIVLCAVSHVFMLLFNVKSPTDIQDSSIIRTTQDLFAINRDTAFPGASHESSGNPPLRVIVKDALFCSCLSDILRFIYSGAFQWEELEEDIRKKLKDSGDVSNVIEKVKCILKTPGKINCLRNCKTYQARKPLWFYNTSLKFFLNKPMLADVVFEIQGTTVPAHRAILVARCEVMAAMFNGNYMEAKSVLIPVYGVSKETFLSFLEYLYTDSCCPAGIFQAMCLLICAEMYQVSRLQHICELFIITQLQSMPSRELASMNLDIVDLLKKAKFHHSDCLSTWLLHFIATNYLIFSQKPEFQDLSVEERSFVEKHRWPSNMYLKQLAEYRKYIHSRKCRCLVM
UniProt Q4G0F5: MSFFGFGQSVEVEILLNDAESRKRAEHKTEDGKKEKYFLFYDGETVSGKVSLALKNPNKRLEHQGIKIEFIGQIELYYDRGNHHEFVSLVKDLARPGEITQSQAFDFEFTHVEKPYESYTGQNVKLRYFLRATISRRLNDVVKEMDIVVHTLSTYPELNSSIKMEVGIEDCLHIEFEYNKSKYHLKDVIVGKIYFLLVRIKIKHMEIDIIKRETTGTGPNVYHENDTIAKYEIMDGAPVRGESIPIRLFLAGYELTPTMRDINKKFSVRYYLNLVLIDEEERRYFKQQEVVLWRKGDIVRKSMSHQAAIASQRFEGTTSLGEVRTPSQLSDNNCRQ

Legend:
Test in all cases: co-IP
[1] = target: SHIP164-1-104 (RhoBTB3-interacting domain, RBID) (UniProt A0JNW5)
GFP-SHIP164-CT = GFP-SHIP164-CT (UniProt A0JNW5)
RhoBTB3 [2] = target: RhoBTB3 (UniProt O94955)
[3] = target: GFP tagged SHIP164 (Syntaxin 6-interacting protein with 164 kDa) (UniProt A0JNW5)
RhoBTB3-1-399 = RhoBTB3-1-399 (UniProt O94955)
RhoBTB3 [4] = target: RhoBTB3 (UniProt O94955); remark: listed apart in the source
[5] = target: GFP tagged SHIP164 (Syntaxin 6-interacting protein with 164 kDa) (UniProt A0JNW5); remark: listed apart in the source

With “Halo-RhoBTB3-N138D (from UniProt O94955 1-611)” the binding [1] was “binds”.

For “Halo-RhoBTB3-A498T (from UniProt O94955 1-611)”, the binding [1] was “binds”.

In the case of Halo-Vps26A (from UniProt O75436 1-327), the binding (GFP-SHIP164-CT) is reported as “no binding”.

With RhoBTB3 (from UniProt O94955 1-611) the binding (RhoBTB3 [2]) was “binds” and the binding [3] was “binds”.

“RhoBTB3-1-399 (from UniProt O94955 1-399) (domain or fragment)” was tested, and the binding (RhoBTB3-1-399) was “binds” and the binding (RhoBTB3 [2]) was “binds”.

With “Halo-RhoBTB3-I533K (from UniProt O94955 1-611)” the binding [1] was “binds”.

“SHIP164-1-104 (RhoBTB3-interacting domain, RBID) (from UniProt A0JNW5 1-104) (domain or fragment)” was tested, and the binding [1] was “binds” and the binding [3] was “binds”.

Halo-Vps26B (from UniProt Q4G0F5 1-336) was tested, and the binding (GFP-SHIP164-CT) was “binds”.

In the case of “Halo-RhoBTB3-400-612 (from UniProt O94955 400-611) (domain or fragment)”, the binding (RhoBTB3-1-399) is reported as “binds” and the binding (RhoBTB3 [2]) is reported as “binds”.

B1: SPTLC3-Halo (enzyme, UniProt Q9NUV7 1-552)
chain: MANPGGGAVCNGKLHNHKKQSNGSQSRNCTKNGIVKEAQQNGKPHFYDKLIVESFEEAPLHVMVFTYMGYGIGTLFGYLRDFLRNWGIEKCNAAVERKEQKDFVPLYQDFENFYTRNLYMRIRDNWNRPICSAPGPLFDLMERVSDDYNWTFRFTGRVIKDVINMGSYNFLGLAAKYDESMRTIKDVLEVYGTGVASTRHEMGTLDKHKELEDLVAKFLNVEAAMVFGMGFATNSMNIPALVGKGCLILSDELNHTSLVLGARLSGATIRIFKHNNTQSLEKLLRDAVIYGQPRTRRAWKKILILVEGVYSMEGSIVHLPQIIALKKKYKAYLYIDEAHSIGAVGPTGRGVTEFFGLDPHEVDVLMGTFTKSFGASGGYIAGRKDLVDYLRVHSHSAVYASSMSPPIAEQIIRSLKLIMGLDGTTQGLQRVQQLAKNTRYFRQRLQEMGFIIYGNENASVVPLLLYMPGKVAAFARHMLEKKIGVVVVGFPATPLAEARARFCVSAAHTREMLDTVLEALDEMGDLLQLKYSRHKKSARPELYDETSFELED
With B1 the binding (RhoBTB3 [4]) was “binds” and the binding [5] was “binds”.

B2: CerS2-Halo (enzyme, UniProt Q96G23 1-380)
chain: MLQTLYDYFWWERLWLPVNLTWADLEDRDGRVYAKASDLYITLPLALLFLIVRYFFELYVATPLAALLNIKEKTRLRAPPNATLEHFYLTSGKQPKQVEVELLSRQSGLSGRQVERWFRRRRNQDRPSLLKKFREASWRFTFYLIAFIAGMAVIVDKPWFYDMKKVWEGYPIQSTIPSQYWYYMIELSFYWSLLFSIASDVKRKDFKEQIIHHVATIILISFSWFANYIRAGTLIMALHDSSDYLLESAKMFNYAGWKNTCNNIFIVFAIVFIITRLVILPFWILHCTLVYPLELYPAFFGYYFFNSMMGVLQLLHIFWAYLILRMAHKFITGKLVEDERSDREETESSEGEEAAAGGGAKSRPLANGHPILNNNHRKND
In the case of B2, the binding (RhoBTB3 [4]) is reported as “binds”.

B3: SMS1-Halo (enzyme, UniProt Q86VZ5 1-413)
chain: MKEVVYWSPKKVADWLLENAMPEYCEPLEHFTGQDLINLTQEDFKKPPLCRVSSDNGQRLLDMIETLKMEHHLEAHKNGHANGHLNIGVDIPTPDGSFSIKIKPNGMPNGYRKEMIKIPMPELERSQYPMEWGKTFLAFLYALSCFVLTTVMISVVHERVPPKEVQPPLPDTFFDHFNRVQWAFSICEINGMILVGLWLIQWLLLKYKSIISRRFFCIVGTLYLYRCITMYVTTLPVPGMHFNCSPKLFGDWEAQLRRIMKLIAGGGLSITGSHNMCGDYLYSGHTVMLTLTYLFIKEYSPRRLWWYHWICWLLSVVGIFCILLAHDHYTVDVVVAYYITTRLFWWYHTMANQQVLKEASQMNLLARVWWYRPFQYFEKNVQGIVPRSYHWPFPWPVVHLSRQVKYSRLVNDT
In the case of B3, the binding (RhoBTB3 [4]) is reported as “binds”.

B4: PEMT-Halo (enzyme, UniProt Q9UBM1 1-199)
chain: MTRLLGYVDPLDPSFVAAVITITFNPLYWNVVARWEHKTRKLSRAFGSPYLACYSLSVTILLLNFLRSHCFTQAMLSQPRMESLDTPAAYSLGLALLGLGVVLVLSSFFALGFAGTFLGDYFGILKEARVTVFPFNILDNPMYWGSTANYLGWAIMHASPTGLLLTVLVALTYIVALLYEEPFTAEIYRQKASGSHKRS
For B4, the binding (RhoBTB3 [4]) was “binds”.

B5: CHPT1-Halo (enzyme, UniProt Q8WUD6 1-406)
chain: MAAGAGAGSAPRWLRALSEPLSAAQLRRLEEHRYSAAGVSLLEPPLQLYWTWLLQWIPLWMAPNSITLLGLAVNVVTTLVLISYCPTATEEAPYWTYLLCALGLFIYQSLDAIDGKQARRTNSCSPLGELFDHGCDSLSTVFMAVGASIAARLGTYPDWFFFCSFIGMFVFYCAHWQTYVSGMLRFGKVDVTEIQIALVIVFVLSAFGGATMWDYTIPILEIKLKILPVLGFLGGVIFSCSNYFHVILHGGVGKNGSTIAGTSVLSPGLHIGLIIILAIMIYKKSATDVFEKHPCLYILMFGCVFAKVSQKLVVAHMTKSELYLQDTVFLGPGLLFLDQYFNNFIDEYVVLWMAMVISSFDMVIYFSALCLQISRHLHLNIFKTACHQAPEQVQVLSSKSHQNNMD
For B5, the binding (RhoBTB3 [4]) was “binds”.

B6: SPTLC3-1-173-Halo (domain or fragment, UniProt Q9NUV7 1-173)
chain: MANPGGGAVCNGKLHNHKKQSNGSQSRNCTKNGIVKEAQQNGKPHFYDKLIVESFEEAPLHVMVFTYMGYGIGTLFGYLRDFLRNWGIEKCNAAVERKEQKDFVPLYQDFENFYTRNLYMRIRDNWNRPICSAPGPLFDLMERVSDDYNWTFRFTGRVIKDVINMGSYNFLGL
With B6 the binding (RhoBTB3 [4]) was “binds”.

B7: SPTLC3-174-427-Halo (domain or fragment, UniProt Q9NUV7 174-427)
chain: AAKYDESMRTIKDVLEVYGTGVASTRHEMGTLDKHKELEDLVAKFLNVEAAMVFGMGFATNSMNIPALVGKGCLILSDELNHTSLVLGARLSGATIRIFKHNNTQSLEKLLRDAVIYGQPRTRRAWKKILILVEGVYSMEGSIVHLPQIIALKKKYKAYLYIDEAHSIGAVGPTGRGVTEFFGLDPHEVDVLMGTFTKSFGASGGYIAGRKDLVDYLRVHSHSAVYASSMSPPIAEQIIRSLKLIMGLDGTTQG
B7 was tested, and the binding (RhoBTB3 [4]) was “binds”.
